Experimental data taken from patent US6207816.
No signal at the amounts used counts as a negative.

Amino acid sequences for entries named in this document (tags omitted). Residues count along the entry.
UniProt P01137, 279-390: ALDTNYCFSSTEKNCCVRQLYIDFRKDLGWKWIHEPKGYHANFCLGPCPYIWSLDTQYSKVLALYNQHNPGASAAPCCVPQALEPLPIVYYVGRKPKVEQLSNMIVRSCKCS

Molecular target: TGF-beta1 (Homo sapiens) (UniProt P01137)
Assay: filter binding
Details: modification not tolerated, purified recombinant protein, protein details: Genentech

Sequence: GGGGGAGAACGCGGAUCCAUAACCGGCUGCAUGGGAGGGACAUCCUGGGAAAGGACGGGUCGAGAUGACCUGAGCAGUUCCGGCAAGCUUCGCUCUAGAUCUCCCUUUAGUGAGGGUUA [lib2-6-8 2'-F]
- binding result (2'-F pyrimidines): no binding

Sequence: GGGGGAGAACGCGGAUCCAUAACCGGCUGCAUGGGAGGGACAUCCUGGGAAAGGACGGGUCGAGAUGACCUGAGCAGUUCCGGCAAGCUUCGCUCUAGAUCUCCCUUUAGUGAGGGUUA [lib2-6-8 2'-NH2]
- binding result (2'-NH2 pyrimidines): no binding

Sequence: GGGGGAGAACGCGGAUCCGGUCACCCGGGCAUAUAACAAUGCCGACACUGGGGUACCUGGGACGGGUGGGACUGGACGGAAGAAGCUUCGCUCUAGAUCUCCCUUUAGUGAGGGUUA [lib1-20-12 2'-F]
- binding result (2'-F pyrimidines): no binding

Sequence: GGGGGAGAACGCGGAUCCGGUCACCCGGGCAUAUAACAAUGCCGACACUGGGGUACCUGGGACGGGUGGGACUGGACGGAAGAAGCUUCGCUCUAGAUCUCCCUUUAGUGAGGGUUA [lib1-20-12 2'-NH2]
- binding result (2'-NH2 pyrimidines): no binding
